Results deposited as PubChem BioAssay AID504804 (Drosophila RNAi Screening Center, 2011)
Purpose: 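dsRNAs that improve Kc cell survival under doxorubicin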 (primary screen). Cell system: Drosophila Kc cells. Reagent: long dsRNA against Drosophila genes, 0.5 µg dsRNA per well. Timing: 96 h (48 h knock-down, then 48 h drug). Challenge: doxorubicin 5 µg/ml for 48 h, added 48 h after dsRNA. Read-out: 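Viability measured as cellular ATP by luminescence after 48 h knock-down then 48 h doxorubicin at 5 µg/ml; unnormalised plate counts for each replicate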. Scale: raw ATP luminescence: higher = more viable cells, protection from doxorubicin. Active means: 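Active when both duplicate wells lie at least 2 SD above the plate mean and protection is confirmed by rescreening and independent dsRNAs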.
The deposit covers about 19,000 reagents; below is an unselected part of those that have a named target and a result. In the full data, 47 (0.25%) are marked active. 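Signals are raw, not normalised; exact z-scores behind calls not deposited; actives needed confirmation, so some wells reaching 2 SD are inactive.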

| predicted target | amplicon | raw ATP luminescence, replicate 1 | raw ATP luminescence, replicate 2 | Outcome |
| --- | --- | --- | --- | --- |
| CG31678 | DRSC02618 | 91657 | 1.09e5 | inactive |
| CG31678 | DRSC02619 | 56380 | 52683 | inactive |
| CG33465 | DRSC05587 | 73930 | 75527 | inactive |
| Yip1d1 | DRSC02166 | 57927 | 73213 | inactive |
| RpS2 | DRSC03614 | 32693 | 32220 | inactive |
| CG8243 | DRSC07122 | 55900 | 86023 | inactive |
| CG34107 | DRSC14554 | 65837 | 54587 | inactive |
| mRpL14 | DRSC18597 | 43320 | 55000 | inactive |
| Rint1 | DRSC11010 | 40883 | 38717 | inactive |
| T48 | DRSC16878 | 66530 | 47520 | inactive |
| CR31822 | DRSC01510 | 2.99e5 | 2.38e5 | inactive |
| Tsp74F | DRSC10508 | 57197 | 42647 | inactive |
| eEFSec | DRSC04571 | 56950 | 64970 | inactive |
| Rep | DRSC07526 | 62420 | 64983 | inactive |
| Fign | DRSC00592 | 1.17e5 | 73097 | inactive |
| mod(mdg4) | DRSC13474 | 2.00e5 | 1.99e5 | inactive |
| mod(mdg4) | DRSC13475 | 1.96e5 | 1.79e5 | inactive |
| mod(mdg4) | DRSC13478 | 1.81e5 | 1.94e5 | inactive |
| mod(mdg4) | DRSC13479 | 1.78e5 | 1.90e5 | inactive |
| mod(mdg4) | DRSC15042 | 32620 | 36810 | inactive |
| mod(mdg4) | DRSC17000 | 52303 | 54617 | inactive |
| NC2alpha | DRSC04059 | 91893 | 82707 | inactive |
| Qsox2 | DRSC15287 | 42977 | 47987 | inactive |
| lectin-46Cb | DRSC06611 | 37920 | 73697 | inactive |
| alpha-Est6 | DRSC12618 | 44250 | 37277 | inactive |
| kl-2 | DRSC21136 | 2.91e5 | 2.63e5 | inactive |
| Pig1 | DRSC18698 | 26790 | 40060 | inactive |
| CG30196 | DRSC04156 | 62770 | 51177 | inactive |
| swm | DRSC02012 | 83210 | 61707 | inactive |
| Obp46a | DRSC06220 | 54453 | 80550 | inactive |
| Or7a | DRSC18691 | 31010 | 45090 | inactive |
| Hex-t1 | DRSC16701 | 44800 | 51120 | inactive |
| SLO2 | DRSC06212 | 20187 | 18180 | inactive |
| SLO2 | DRSC06214 | 36627 | 79033 | inactive |
| SLO2 | DRSC06216 | 50187 | 79033 | inactive |
| SLO2 | DRSC06218 | 45543 | 67940 | inactive |
| SLO2 | DRSC06219 | 24973 | 28310 | inactive |
